# Measurements published in the supplement of paper PMC10849652.
# Sequences of proteins named here, by UniProt entry; tags and fusion partners are left off. A change or cut given only in a name is not applied to a line headed by its entry.
# UniProt Q99417: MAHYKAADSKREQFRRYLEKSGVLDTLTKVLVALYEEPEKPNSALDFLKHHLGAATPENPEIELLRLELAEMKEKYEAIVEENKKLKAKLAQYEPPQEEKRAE
# UniProt Q96DH6: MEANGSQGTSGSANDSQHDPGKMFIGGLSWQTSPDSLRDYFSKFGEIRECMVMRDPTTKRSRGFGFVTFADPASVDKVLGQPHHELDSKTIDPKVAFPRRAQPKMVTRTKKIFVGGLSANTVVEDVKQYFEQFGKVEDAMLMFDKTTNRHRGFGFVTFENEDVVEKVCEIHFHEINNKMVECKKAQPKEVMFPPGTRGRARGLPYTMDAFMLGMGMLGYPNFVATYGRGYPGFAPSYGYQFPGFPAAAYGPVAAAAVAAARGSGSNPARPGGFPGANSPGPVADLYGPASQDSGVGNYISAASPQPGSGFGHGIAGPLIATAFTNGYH
# UniProt O14950, whole entry, looked up: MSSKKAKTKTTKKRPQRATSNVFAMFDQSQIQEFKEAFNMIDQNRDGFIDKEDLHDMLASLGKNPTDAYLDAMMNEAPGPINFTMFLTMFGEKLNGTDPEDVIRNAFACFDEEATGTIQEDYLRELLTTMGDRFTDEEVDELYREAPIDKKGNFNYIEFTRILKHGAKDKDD
# UniProt P84157: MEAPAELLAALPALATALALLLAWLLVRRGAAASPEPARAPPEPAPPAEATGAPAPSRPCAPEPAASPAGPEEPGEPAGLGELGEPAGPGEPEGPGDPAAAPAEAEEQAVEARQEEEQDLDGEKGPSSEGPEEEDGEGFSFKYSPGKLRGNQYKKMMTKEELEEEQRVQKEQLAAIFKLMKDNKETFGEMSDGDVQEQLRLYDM
# UniProt Q9UDX5: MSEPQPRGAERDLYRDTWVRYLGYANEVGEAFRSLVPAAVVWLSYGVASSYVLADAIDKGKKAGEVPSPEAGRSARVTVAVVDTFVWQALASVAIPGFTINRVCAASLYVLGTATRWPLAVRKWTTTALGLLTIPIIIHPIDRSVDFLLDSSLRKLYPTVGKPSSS
# UniProt P42285: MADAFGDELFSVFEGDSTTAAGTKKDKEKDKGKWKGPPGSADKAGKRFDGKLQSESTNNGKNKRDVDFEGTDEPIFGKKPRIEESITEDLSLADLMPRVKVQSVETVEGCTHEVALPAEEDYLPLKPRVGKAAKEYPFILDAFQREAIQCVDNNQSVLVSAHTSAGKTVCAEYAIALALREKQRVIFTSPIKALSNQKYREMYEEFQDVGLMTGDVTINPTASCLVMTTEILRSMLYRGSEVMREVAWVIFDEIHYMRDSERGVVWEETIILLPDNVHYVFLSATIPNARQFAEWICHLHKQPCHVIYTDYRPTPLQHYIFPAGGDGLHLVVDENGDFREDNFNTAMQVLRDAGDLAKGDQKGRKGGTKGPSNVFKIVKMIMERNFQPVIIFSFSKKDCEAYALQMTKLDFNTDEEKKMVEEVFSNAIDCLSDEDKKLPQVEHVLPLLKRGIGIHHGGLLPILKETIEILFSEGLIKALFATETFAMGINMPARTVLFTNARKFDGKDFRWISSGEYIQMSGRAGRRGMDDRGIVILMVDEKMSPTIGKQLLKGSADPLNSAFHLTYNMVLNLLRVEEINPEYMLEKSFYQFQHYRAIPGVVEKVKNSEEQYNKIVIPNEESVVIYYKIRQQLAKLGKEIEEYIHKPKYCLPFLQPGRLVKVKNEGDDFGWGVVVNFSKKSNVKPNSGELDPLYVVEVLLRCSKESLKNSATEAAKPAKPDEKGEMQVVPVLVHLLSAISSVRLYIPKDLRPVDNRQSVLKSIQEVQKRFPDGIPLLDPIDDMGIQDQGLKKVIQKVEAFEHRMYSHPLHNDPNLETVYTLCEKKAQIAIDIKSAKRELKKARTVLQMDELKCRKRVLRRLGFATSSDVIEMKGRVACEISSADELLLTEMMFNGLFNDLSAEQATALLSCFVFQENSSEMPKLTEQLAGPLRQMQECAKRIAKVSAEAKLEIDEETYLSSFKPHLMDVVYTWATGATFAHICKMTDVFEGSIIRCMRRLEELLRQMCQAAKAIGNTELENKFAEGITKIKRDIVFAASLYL
# UniProt Q6P444: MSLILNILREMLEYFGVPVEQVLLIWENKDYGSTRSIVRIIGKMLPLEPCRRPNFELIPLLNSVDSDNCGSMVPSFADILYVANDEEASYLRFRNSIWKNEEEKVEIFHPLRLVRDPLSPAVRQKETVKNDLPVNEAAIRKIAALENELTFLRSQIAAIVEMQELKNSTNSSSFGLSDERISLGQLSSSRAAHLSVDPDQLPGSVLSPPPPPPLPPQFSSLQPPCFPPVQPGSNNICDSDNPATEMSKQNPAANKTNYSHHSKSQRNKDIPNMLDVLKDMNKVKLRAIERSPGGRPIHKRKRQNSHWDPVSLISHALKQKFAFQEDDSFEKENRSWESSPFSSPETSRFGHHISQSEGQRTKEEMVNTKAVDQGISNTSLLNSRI
# UniProt Q15390: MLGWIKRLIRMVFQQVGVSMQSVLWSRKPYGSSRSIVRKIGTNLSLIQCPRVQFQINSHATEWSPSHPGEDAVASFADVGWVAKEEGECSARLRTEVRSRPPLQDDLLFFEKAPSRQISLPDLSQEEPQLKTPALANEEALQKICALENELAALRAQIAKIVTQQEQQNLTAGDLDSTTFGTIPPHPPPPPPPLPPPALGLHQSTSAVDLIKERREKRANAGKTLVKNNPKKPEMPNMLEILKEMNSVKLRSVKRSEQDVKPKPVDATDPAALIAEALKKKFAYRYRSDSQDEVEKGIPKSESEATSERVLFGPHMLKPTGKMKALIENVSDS
# UniProt Q9H019: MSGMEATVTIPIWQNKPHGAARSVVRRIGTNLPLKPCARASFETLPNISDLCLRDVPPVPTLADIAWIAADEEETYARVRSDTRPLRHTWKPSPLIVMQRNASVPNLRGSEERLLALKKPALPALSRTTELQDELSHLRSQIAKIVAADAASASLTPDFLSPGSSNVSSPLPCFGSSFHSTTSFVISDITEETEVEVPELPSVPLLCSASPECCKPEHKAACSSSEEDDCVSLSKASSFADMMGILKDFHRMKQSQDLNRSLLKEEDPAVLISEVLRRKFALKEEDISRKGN
# UniProt O75431: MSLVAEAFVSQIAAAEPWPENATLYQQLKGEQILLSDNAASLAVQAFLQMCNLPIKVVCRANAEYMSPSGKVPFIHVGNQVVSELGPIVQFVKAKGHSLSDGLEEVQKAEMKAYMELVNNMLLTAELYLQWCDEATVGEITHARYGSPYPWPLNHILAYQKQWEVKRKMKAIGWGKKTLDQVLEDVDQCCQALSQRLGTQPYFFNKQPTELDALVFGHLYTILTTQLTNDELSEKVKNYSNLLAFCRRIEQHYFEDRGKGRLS
# UniProt P20585: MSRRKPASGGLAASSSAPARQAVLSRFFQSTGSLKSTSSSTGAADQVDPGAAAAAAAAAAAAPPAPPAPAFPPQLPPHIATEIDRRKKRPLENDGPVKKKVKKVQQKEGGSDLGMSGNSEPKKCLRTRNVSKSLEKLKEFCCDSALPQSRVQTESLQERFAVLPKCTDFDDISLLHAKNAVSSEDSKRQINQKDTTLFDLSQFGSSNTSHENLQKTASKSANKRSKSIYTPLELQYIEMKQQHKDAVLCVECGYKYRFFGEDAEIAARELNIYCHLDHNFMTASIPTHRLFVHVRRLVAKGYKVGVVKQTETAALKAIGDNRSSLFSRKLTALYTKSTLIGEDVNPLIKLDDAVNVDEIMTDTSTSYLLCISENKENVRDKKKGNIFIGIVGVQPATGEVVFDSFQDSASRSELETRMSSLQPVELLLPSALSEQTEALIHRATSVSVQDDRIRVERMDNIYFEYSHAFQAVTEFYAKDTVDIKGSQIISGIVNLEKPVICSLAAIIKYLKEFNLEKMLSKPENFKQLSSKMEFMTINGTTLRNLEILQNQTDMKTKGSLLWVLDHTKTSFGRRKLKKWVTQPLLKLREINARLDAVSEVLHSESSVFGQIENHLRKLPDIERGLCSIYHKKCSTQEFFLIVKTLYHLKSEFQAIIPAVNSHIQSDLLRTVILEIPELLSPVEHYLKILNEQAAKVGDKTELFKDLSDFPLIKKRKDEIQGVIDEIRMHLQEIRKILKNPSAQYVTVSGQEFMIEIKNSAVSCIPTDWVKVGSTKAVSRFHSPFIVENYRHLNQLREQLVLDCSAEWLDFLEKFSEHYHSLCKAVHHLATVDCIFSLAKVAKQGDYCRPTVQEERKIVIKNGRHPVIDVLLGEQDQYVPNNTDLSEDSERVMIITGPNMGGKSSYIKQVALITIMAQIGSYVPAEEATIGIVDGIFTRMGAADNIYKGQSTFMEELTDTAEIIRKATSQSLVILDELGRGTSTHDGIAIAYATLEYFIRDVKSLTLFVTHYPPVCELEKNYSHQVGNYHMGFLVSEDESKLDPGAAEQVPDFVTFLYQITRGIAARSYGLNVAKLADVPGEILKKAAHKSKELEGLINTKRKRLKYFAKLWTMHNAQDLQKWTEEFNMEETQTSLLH
# UniProt Q9NVV4: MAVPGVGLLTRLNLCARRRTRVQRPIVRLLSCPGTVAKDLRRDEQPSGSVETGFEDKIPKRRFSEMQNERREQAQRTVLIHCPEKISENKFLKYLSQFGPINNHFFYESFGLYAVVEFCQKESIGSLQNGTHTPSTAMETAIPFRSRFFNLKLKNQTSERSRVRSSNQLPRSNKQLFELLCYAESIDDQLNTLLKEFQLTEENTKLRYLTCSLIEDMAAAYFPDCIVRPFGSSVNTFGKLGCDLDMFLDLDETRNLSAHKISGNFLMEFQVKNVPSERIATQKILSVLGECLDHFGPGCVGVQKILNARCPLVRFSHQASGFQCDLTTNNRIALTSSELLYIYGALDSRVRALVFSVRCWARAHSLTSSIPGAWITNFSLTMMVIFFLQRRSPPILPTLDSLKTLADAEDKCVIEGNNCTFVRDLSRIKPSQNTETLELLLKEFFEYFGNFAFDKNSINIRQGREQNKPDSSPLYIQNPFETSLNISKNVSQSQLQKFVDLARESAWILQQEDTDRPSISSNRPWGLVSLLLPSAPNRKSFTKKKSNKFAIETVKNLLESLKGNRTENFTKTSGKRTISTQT
# UniProt P13995: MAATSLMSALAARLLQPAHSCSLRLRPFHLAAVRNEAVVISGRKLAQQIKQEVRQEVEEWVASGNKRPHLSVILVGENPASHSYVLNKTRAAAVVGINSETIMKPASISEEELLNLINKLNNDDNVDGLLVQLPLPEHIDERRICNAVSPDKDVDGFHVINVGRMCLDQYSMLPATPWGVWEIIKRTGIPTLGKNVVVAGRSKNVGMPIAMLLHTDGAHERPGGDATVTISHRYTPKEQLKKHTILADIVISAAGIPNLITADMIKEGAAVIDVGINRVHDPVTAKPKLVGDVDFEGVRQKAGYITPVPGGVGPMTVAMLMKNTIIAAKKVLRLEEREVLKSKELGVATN
# Some of the results follow.
# What was measured:
# Assay in all cases: log2 fold change, soluble protein after heating vs DMSO (PISA); higher = thermal stabilisation; K562 cells, 10 uM, 30 min; active = over 0.2 and 3.5 SD of the protein, either way, in both replicates (recomputed)
# [1] = compound: CS(=O)(=O)c1ccc(-c2cnc(N)c(C(=O)Nc3ccccc3)n2)cc1
# Method in brief: (§1)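 Soluble protein was defined as the supernatant after 21,000xg for 90 min. It came from K562 cells at 2×10^6 cells/mL given 10 μM compound for 30 min, heated in aliquots for 3 min across 48°C-58°C, pooled, and extracted in PBS with 0.5% NP-40 at 4°C, and was quantified by TMTpro 16plex LC-MS/MS with equalised channel sums. Thermal stability against control samples, from duplicates, is reported as log2 fold change.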
# [2] = compound: C[C@@H](Oc1cc(-c2cnn(C3CCNCC3)c2)cnc1N)c1c(Cl)ccc(F)c1Cl [crizotinib]
# Method in brief: as §1
# [3] = compound: C[C@@H]1COCCN1C2=NC(=NC(=C2)C3(CC3)S(=O)(=O)C)C4=C5C=CNC5=CC=C4
# Method in brief: as §1
# [4] = compound: C[C@H](C1=CC=C(C=C1)C(=O)NC2=C3C=CNC3=NC=C2)N
# Method in brief: as §1
# [5] = compound: C[C@H](Nc1ncnc2nc[nH]c12)c1cc2cccc(Cl)c2c(=O)n1-c1ccccc1 [duvelisib]
# Method in brief: as §1
# [6] = compound: Cc1cc(Nc2cc(CN3CCOCC3)c3nc(C)c(Cc4ccc(Cl)cc4F)n3n2)n[nH]1 [gandotinib]
# Method in brief: as §1
# [7] = compound: Cc1cc(Nc2cc(N3CCN(C)CC3)nc(Sc3ccc(NC(=O)C4CC4)cc3)n2)n[nH]1 [tozasertib]
# Method in brief: as §1
# [8] = compound: Cc1cc(SCc2sc(-c3ccc(C(F)(F)F)cc3)nc2C)ccc1OCC(=O)O
# Method in brief: as §1
# [9] = compound: Cc1ccc(-n2nc(C(C)(C)C)cc2NC(=O)Nc2ccc(OCCN3CCOCC3)c3ccccc23)cc1 [doramapimod]
# Method in brief: as §1
# [10] = compound: Cc1ccc(C(=O)N(CCCN)[C@@H](c2nc3cc(Cl)ccc3c(=O)n2Cc2ccccc2)C(C)C)cc1 [ispinesib]
# Method in brief: as §1
# [11] = compound: Cc1ccc(NC(=O)c2ccc(CN3CC[C@H](N(C)C)C3)c(C(F)(F)F)c2)cc1Nc1nccc(-c2cncnc2)n1 [bafetinib]
# Method in brief: as §1
# [12] = compound: Cc1cccc(CC(=O)N2CCc3c2ccc(-c2cn(C)c4ncnc(N)c24)c3F)n1
# Method in brief: as §1
# [13] = compound: Cc1cn(-c2cc(NC(=O)c3ccc(C)c(Nc4nccc(-c5cccnc5)n4)c3)cc(C(F)(F)F)c2)cn1 [nilotinib]
# Method in brief: as §1
# [14] = compound: Cc1nc(Nc2n[nH]c3c2CN(C(=O)N[C@H](CN(C)C)c2ccccc2)C3(C)C)c2sccc2n1
# Method in brief: as §1
# [15] = compound: Cc1nc(Nc2ncc(C(=O)Nc3c(C)cccc3Cl)s2)cc(N2CCN(CCO)CC2)n1 [dasatinib]
# Method in brief: as §1
# [16] = compound: Cc1ncc(-c2ccnc(Nc3ccc(S(C)(=O)=O)cc3)n2)n1C(C)C
# Method in brief: as §1
# [17] = compound: Cn1cc(-c2ccc3c(c2)CCN3C(=O)Cc2cccc(C(F)(F)F)c2)c2c(N)ncnc21
# Method in brief: as §1
# [18] = compound: Cn1cc(-c2ccc3nnc(C(F)(F)c4ccc5ncccc5c4)n3n2)cn1
# Method in brief: as §1
# [19] = compound: Cn1cncc1[C@@](N)(c1ccc(Cl)cc1)c1ccc2c(c1)c(-c1cccc(Cl)c1)cc(=O)n2C [tipifarnib]
# Method in brief: as §1
# [20] = compound: FC(F)(F)c1ccc(/C=C/c2nc(COc3ccc(CCCCn4ccnn4)cc3)co2)cc1 [mubritinib]
# Method in brief: as §1
Target,log2 fold change [1],log2 fold change [2],log2 fold change [3],log2 fold change [4],log2 fold change [5],log2 fold change [6],log2 fold change [7],log2 fold change [8],log2 fold change [9],log2 fold change [10],log2 fold change [11],log2 fold change [12],log2 fold change [13],log2 fold change [14],log2 fold change [15],log2 fold change [16],log2 fold change [17],log2 fold change [18],log2 fold change [19],log2 fold change [20]
MYCBP (UniProt Q99417),inactive: -0.002,inactive: 0.096,inactive: 0.07,inactive: -0.022,inactive: 0.04,inactive: 0.028,inactive: -0.006,inactive: -0.049,inactive: -0.021,inactive: -0.066,inactive: -0.03,inactive: -0.049,inactive: -0.028,inactive: 0.013,inactive: 0.074,inactive: -0.043,inactive: 0.009,inactive: 0.021,inactive: 0.061,inactive: 0.031
MSI2 (UniProt Q96DH6),inactive: 0.01,inactive: -0.018,inactive: -0.111,inactive: 0.131,inactive: 0,inactive: 0.026,inactive: -0.045,inactive: -0.051,inactive: 0.017,inactive: -0.141,inactive: -0.072,inactive: 0.046,inactive: 0.002,inactive: -0.005,inactive: -0.018,inactive: 0.061,inactive: -0.154,inactive: 0.02,inactive: 0.057,inactive: -0.063
MYL12B (UniProt O14950),inactive: -0.016,inactive: -0.004,inactive: 0.019,active: -0.32,,inactive: 0.058,,inactive: -0.003,inactive: 0.025,inactive: 0.097,inactive: -0.049,inactive: 0.042,inactive: 0.031,inactive: 0.001,inactive: 0.001,inactive: -0.002,inactive: 0.117,inactive: -0.046,inactive: -0.038,inactive: 0.064
MXRA7 (UniProt P84157),inactive: 0.043,inactive: -0.012,inactive: 0.051,inactive: -0.138,,inactive: -0.122,,inactive: 0.047,inactive: 0.035,inactive: 0.103,inactive: -0.074,inactive: -0.075,inactive: -0.02,inactive: -0.057,inactive: 0.042,inactive: 0.057,inactive: 0.03,inactive: -0.042,inactive: 0.018,inactive: 0.002
MRPS22 (UniProt P82650),inactive: -0.014,inactive: 0.037,inactive: 0.086,inactive: 0.055,,inactive: 0.008,,inactive: 0.081,inactive: 0.002,active: -0.258,inactive: 0.233,inactive: 0.137,inactive: -0.21,inactive: 0.044,inactive: -0.024,inactive: 0.012,inactive: 0.003,inactive: 0.017,inactive: -0.11,inactive: 0.15
MTFP1 (UniProt Q9UDX5),inactive: 0.072,inactive: 0.077,inactive: 0.037,inactive: -0.08,inactive: 0.076,inactive: -0.01,inactive: -0.024,inactive: -0.024,inactive: 0.02,inactive: 0.017,inactive: -0.079,inactive: -0.069,inactive: -0.003,inactive: -0.015,inactive: 0.045,inactive: -0.008,inactive: 0.039,inactive: 0.087,inactive: -0.036,inactive: 0.017
MRPS24 (UniProt Q96EL2),inactive: 0.014,inactive: -0.031,inactive: 0.192,inactive: 0.082,,inactive: -0.117,,inactive: 0.094,inactive: -0.028,active: -0.427,inactive: 0.283,inactive: 0.183,inactive: -0.195,inactive: 0.057,inactive: -0.024,inactive: 0.028,inactive: -0.141,inactive: 0.008,inactive: -0.035,inactive: 0.186
MTREX (UniProt P42285),inactive: 0.015,inactive: -0.025,inactive: 0.04,inactive: 0.025,inactive: -0.005,inactive: -0.108,inactive: -0.031,inactive: 0.034,inactive: -0.041,inactive: 0.005,inactive: -0.006,inactive: 0.023,inactive: -0.023,inactive: 0.015,inactive: -0.091,inactive: -0.004,inactive: 0.017,inactive: 0.011,inactive: -0.031,inactive: 0.079
MTFR2 (UniProt Q6P444),inactive: 0.059,inactive: -0.107,inactive: 0,inactive: -0.058,inactive: -0.072,,inactive: 0.013,inactive: -0.034,inactive: -0.034,inactive: -0.1,inactive: -0.037,,inactive: -0.125,inactive: -0.05,inactive: -0.263,inactive: 0.057,inactive: -0.081,inactive: -0.087,inactive: -0.016,inactive: 0.045
MRPS18A isoform 2 (UniProt Q9NVS2),inactive: 0.044,inactive: 0.002,inactive: -0.124,inactive: 0.324,inactive: -0.129,inactive: 0.118,inactive: 0.033,inactive: 0.076,inactive: 0.12,inactive: -0.159,inactive: 0.145,inactive: 0.078,inactive: -0.058,inactive: 0.084,inactive: 0.029,inactive: 0.028,inactive: -0.197,inactive: -0.097,inactive: 0.104,inactive: 0.029
MTFR1 (UniProt Q15390),inactive: -0.014,inactive: -0.139,inactive: -0.008,inactive: -0.014,inactive: 0.013,inactive: -0.037,inactive: -0.026,inactive: -0.039,inactive: -0.015,inactive: -0.074,inactive: -0.127,inactive: 0.061,inactive: -0.004,inactive: 0,inactive: -0.157,inactive: 0.081,inactive: 0.133,inactive: 0.017,inactive: -0.069,inactive: -0.003
MTFR1L (UniProt Q9H019),inactive: 0.059,inactive: -0.162,inactive: -0.088,inactive: 0.153,,inactive: -0.123,,inactive: 0.039,inactive: 0.042,inactive: -0.329,inactive: -0.1,inactive: 0.305,inactive: 0.014,inactive: -0.32,inactive: -0.167,inactive: -0.038,inactive: 0.07,inactive: 0.001,inactive: -0.062,
MTX2 (UniProt O75431),inactive: 0.08,inactive: -0.025,inactive: 0.02,inactive: -0.011,inactive: 0.075,inactive: 0,inactive: 0,inactive: 0.085,inactive: 0.022,inactive: 0.045,inactive: -0.083,inactive: -0.04,inactive: 0.062,inactive: 0.013,inactive: -0.043,inactive: -0.01,inactive: 0.023,inactive: -0.001,inactive: 0.001,inactive: 0.014
MSH3 (UniProt P20585),inactive: -0.029,inactive: 0.045,inactive: -0.031,inactive: 0.047,,inactive: -0.096,,inactive: 0.024,inactive: 0.035,inactive: 0.088,inactive: -0.012,inactive: 0.051,inactive: -0.046,inactive: -0.014,inactive: -0.038,inactive: 0.052,inactive: -0.032,inactive: 0.009,inactive: -0.029,inactive: 0.167
MTPAP (UniProt Q9NVV4),inactive: -0.003,inactive: 0.058,inactive: -0.133,inactive: 0.174,inactive: -0.096,inactive: 0.024,inactive: 0.005,inactive: 0.011,inactive: 0.058,inactive: -0.26,inactive: 0.091,inactive: -0.081,inactive: -0.117,inactive: 0.068,inactive: -0.191,inactive: 0.06,inactive: -0.163,inactive: -0.003,inactive: 0.165,inactive: -0.398
MTHFD2 (UniProt P13995),inactive: 0.023,inactive: -0.071,inactive: 0.05,inactive: -0.018,inactive: 0.003,inactive: -0.053,inactive: -0.041,inactive: -0.031,inactive: -0.025,inactive: -0.111,inactive: -0.056,inactive: 0.018,inactive: -0.023,inactive: -0.011,inactive: -0.017,inactive: -0.044,inactive: 0.019,inactive: 0.035,inactive: -0.037,inactive: 0.109
MRPS18C (UniProt Q9Y3D5),inactive: -0.039,inactive: 0.015,inactive: 0.082,inactive: 0.146,inactive: -0.009,inactive: -0.38,inactive: -0.131,inactive: -0.058,inactive: -0.094,inactive: -0.249,inactive: 0.016,inactive: 0.103,,,inactive: -0.117,,inactive: -0.116,inactive: -0.05,inactive: 0.062,inactive: 0.221

# A second format for part of the listing above:
Target	log2 fold change [1]	log2 fold change [2]	log2 fold change [3]	log2 fold change [4]	log2 fold change [5]	log2 fold change [6]	log2 fold change [7]	log2 fold change [8]	log2 fold change [9]	log2 fold change [10]	log2 fold change [11]	log2 fold change [12]	log2 fold change [13]	log2 fold change [14]	log2 fold change [15]	log2 fold change [16]	log2 fold change [17]	log2 fold change [18]	log2 fold change [19]	log2 fold change [20]
MRPS22 (UniProt P82650)	inactive: -0.014	inactive: 0.037	inactive: 0.086	inactive: 0.055		inactive: 0.008		inactive: 0.081	inactive: 0.002	active: -0.258	inactive: 0.233	inactive: 0.137	inactive: -0.21	inactive: 0.044	inactive: -0.024	inactive: 0.012	inactive: 0.003	inactive: 0.017	inactive: -0.11	inactive: 0.15
MTFP1 (UniProt Q9UDX5)	inactive: 0.072	inactive: 0.077	inactive: 0.037	inactive: -0.08	inactive: 0.076	inactive: -0.01	inactive: -0.024	inactive: -0.024	inactive: 0.02	inactive: 0.017	inactive: -0.079	inactive: -0.069	inactive: -0.003	inactive: -0.015	inactive: 0.045	inactive: -0.008	inactive: 0.039	inactive: 0.087	inactive: -0.036	inactive: 0.017
MRPS24 (UniProt Q96EL2)	inactive: 0.014	inactive: -0.031	inactive: 0.192	inactive: 0.082		inactive: -0.117		inactive: 0.094	inactive: -0.028	active: -0.427	inactive: 0.283	inactive: 0.183	inactive: -0.195	inactive: 0.057	inactive: -0.024	inactive: 0.028	inactive: -0.141	inactive: 0.008	inactive: -0.035	inactive: 0.186
MTREX (UniProt P42285)	inactive: 0.015	inactive: -0.025	inactive: 0.04	inactive: 0.025	inactive: -0.005	inactive: -0.108	inactive: -0.031	inactive: 0.034	inactive: -0.041	inactive: 0.005	inactive: -0.006	inactive: 0.023	inactive: -0.023	inactive: 0.015	inactive: -0.091	inactive: -0.004	inactive: 0.017	inactive: 0.011	inactive: -0.031	inactive: 0.079
MTFR2 (UniProt Q6P444)	inactive: 0.059	inactive: -0.107	inactive: 0	inactive: -0.058	inactive: -0.072		inactive: 0.013	inactive: -0.034	inactive: -0.034	inactive: -0.1	inactive: -0.037		inactive: -0.125	inactive: -0.05	inactive: -0.263	inactive: 0.057	inactive: -0.081	inactive: -0.087	inactive: -0.016	inactive: 0.045
